Library screening results

Protein sequences, listed by entry. Tags and fused reporters are not part of them.
UniProt E9BF75, entry or part of it: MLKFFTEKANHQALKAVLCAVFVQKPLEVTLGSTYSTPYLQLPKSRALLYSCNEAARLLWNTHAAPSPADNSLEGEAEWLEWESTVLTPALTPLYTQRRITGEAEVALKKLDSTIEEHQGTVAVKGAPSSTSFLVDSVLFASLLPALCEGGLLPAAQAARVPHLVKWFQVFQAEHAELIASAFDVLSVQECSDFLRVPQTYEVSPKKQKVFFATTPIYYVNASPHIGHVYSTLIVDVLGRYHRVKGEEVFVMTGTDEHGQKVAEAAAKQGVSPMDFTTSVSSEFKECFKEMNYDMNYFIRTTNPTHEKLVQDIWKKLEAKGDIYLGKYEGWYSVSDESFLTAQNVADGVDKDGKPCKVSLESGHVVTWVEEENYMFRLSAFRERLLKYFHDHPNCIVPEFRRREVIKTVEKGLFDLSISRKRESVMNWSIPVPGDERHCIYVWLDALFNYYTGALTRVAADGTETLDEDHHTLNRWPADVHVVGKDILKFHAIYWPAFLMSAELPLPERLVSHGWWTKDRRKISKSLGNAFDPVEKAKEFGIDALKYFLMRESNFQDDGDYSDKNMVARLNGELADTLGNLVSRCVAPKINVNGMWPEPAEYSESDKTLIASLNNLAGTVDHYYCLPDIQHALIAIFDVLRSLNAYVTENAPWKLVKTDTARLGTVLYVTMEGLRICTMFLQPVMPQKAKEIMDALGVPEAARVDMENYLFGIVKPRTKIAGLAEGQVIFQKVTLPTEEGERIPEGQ

LdMetRS: 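Primary screen of methionyl-tRNA synthetase; the read-out is not stated. Target: Methionyl-tRNA synthetase (putative), Leishmania donovani (UniProt E9BF75). The test concentration is not given. The values are filed as inhibition. Of about 68,000 compounds tested this way, about 24 (0.035%) reached 50% or more in at least one test.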
Mtb heat-shock: 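Assay on Mycobacterium tuberculosis, filed only as a heat shock assay from Cornell; the read-out is not stated. The concentration is filed as 10 mM, unlikely as a test dose, so the dose is not known. Higher reads as stronger inhibition (inferred: compounds with an IC50 in retests scored well above the rest). Of about 69,000 compounds tested this way, about 930 (1.4%) reached 50% or more in at least one test.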

All values are in %. How 0% and 100% were set is not recorded. Most values in the screen are low, and negative values occur. The compounds are a random part of those screened. A dash means the value is not listed here; it may have been measured.

| structure | LdMetRS | Mtb heat-shock |
|---|---|---|
| `Cc1csc(CN2CCC[C@]3(C[C@H](OCC4CC4)CO3)C2)n1` | 14.72 | -19.89 |
| `Cc1nn(C)c(N(C)C)c1CNCCOc1ccc2c(c1)OCO2` | 13.68 | - |
| `CC(C)NC[C@H]1COCc2nc3cccnc3n21` | 6.84 | 2.001 |
| `Fc1cccc2c1CCC2NCc1cnc(N2CCOCC2)nc1` (stereo not given) | 12.47 | -12.48 |
| `O=C(c1cnc(Nc2ccccc2)nc1)N1CCC(O)(CO)CC1` | 14.81 | 5.722 |
| `Cc1nccc(CN2CC[C@H](Oc3cccc(F)c3)[C@@](C)(O)C2)n1` | 20.63 | -10.08 |
| `Cc1noc(C)c1CN1Cc2cn(C)nc2C(COCC2CC2)C1.O=C(O)C(F)(F)F.O=C(O)C(F)(F)F` (stereo not given) | - | -30.33 |
| `COCCc1nnc(NC(=O)Cc2ccccc2Cl)o1` | 16.82 | 24.38 |
| `O=C(C1CC1)N1CCN(c2ccc(-n3cncn3)nn2)CC1` | 7.914 | 6.271 |
| `CCC(CC)C(=O)NCC1(NC(C)c2ccccc2)CCOCC1` (stereo not given) | 8.075 | -15.98 |
| `COc1cc(N2CCC3(CCN(C(=O)c4cccnc4)CC3)C2)ncn1.O=C(O)C(F)(F)F` | - | -12.98 |
| `CN1CC(C(=O)NC(C)(C)C)CC1=O` (stereo not given) | 14.5 | 1.718 |
| `CC(=O)N1CCC(N2CCC(c3nc(C)cc(C)n3)C2)CC1` (stereo not given) | 11.7 | - |
| `CCC(Nc1cccc(OC)c1)C(=O)NCc1ccc2[nH]c(=O)[nH]c2c1` (stereo not given) | -0.9464 | 6.387 |
| `CCOCC1CN(S(=O)(=O)Cc2ccccc2)Cc2nccn2C1` (stereo not given) | 14.08 | 2.693 |
| `Cc1ccc(CN2CC[C@H]3OCC[C@@]3(COCC(=O)N(C)C)C2)s1` | -2.801 | - |
| `c1csc(CN2CCn3c(Cn4cncn4)cnc3C2)n1` | 12.89 | - |
| `CC(C)(CNC(=O)C1CCCN1S(C)(=O)=O)N1CCOCC1` (stereo not given) | 8.163 | -6.993 |
| `CN(Cc1cc(Br)cn1C)C(=O)c1cc(Cl)ccn1` | 4.194 | -6.327 |
| `COc1cccc2c(=O)n(CCN3CCNCC3)cnc12` | 16.4 | -11.31 |
| `CCN(CC1CCCO1)C(=O)Nc1cc(C)ccc1S(C)(=O)=O` (stereo not given) | 15 | -9.944 |
| `COCCNc1ccc(CNC(=O)C2COc3ccccc32)cc1` (stereo not given) | 11.81 | -37.78 |
| `Cc1cnc(N2CC[C@@H]3OC(COCC(=O)N(C)C)CC[C@@H]32)nc1` (stereo not given in full) | 14.97 | - |
| `COc1ccc(CN(C)[C@@H]2CN(C(=O)c3cncs3)C[C@H]2O)cc1` | 7.292 | -1.998 |
| `CC(C)NC(=O)C1CN(Cc2cccs2)Cc2ccnn2C1` (stereo not given) | 13.49 | -6.955 |
| `COCc1nc(C(=O)N2CCN(c3nccc(OC)n3)CC2)cs1` | 4.982 | -2.148 |
| `COc1cccc(OC2CN(C(=O)CCn3cnnn3)C2)c1` | 16.15 | -8.202 |
| `O=C(Nc1ccccc1N1CCOC1=O)N1CCc2sccc2C1` | 17.61 | 5.263 |
| `O=C(CC1CC2(CCN(CC3CC3)CC2)Oc2ccccc21)NC1CC1.O=C(O)C(F)(F)F` (stereo not given) | - | -16.62 |
| `CNC(=O)c1ccc2c(c1)C1(CCN(C(C)C)CC1)C(=O)N2.O=C(O)C(F)(F)F` | - | -8.138 |
| `COC(=O)C(C)(C)S(=O)(=O)c1ccc(Br)cc1` | 16.28 | -25.31 |
| `O=C(c1ccccn1)N1C[C@@H]2CC[C@H](C1)N(C(=O)c1ccsc1)C2` | 6.689 | - |
| `CCCN1CCC(c2nc3ccc(-c4ccccc4)cn3n2)CC1.O=C(O)C(F)(F)F` | - | -8.011 |
| `Cc1nc(CNc2cccc(Cl)c2Cl)cs1` | 15.86 | 0.2456 |
| `CCC(C)(C)NC(=O)Cn1nc(C)nc1-c1cccc(C)c1` | 15.79 | 19.56 |
| `Cc1n[nH]cc1CNC(C(=O)N1CCCCC1)c1ccccc1` (stereo not given) | 9.948 | -8.652 |
| `O=C(NCC1COC2(CCOCC2)O1)c1csc(-c2cccc(Cl)c2)n1` (stereo not given) | 9.972 | 15.51 |
| `Cn1cc(CN2CCC(c3cc(COc4cccc(Cl)c4)[nH]n3)C2)cn1` (stereo not given) | 14.33 | - |
| `CSCC[C@H](N)C(=O)NCc1cc2n(n1)CCCN(C(=O)N(C)C)C2` | 15.77 | 12.79 |
| `N#Cc1ccccc1Cn1cncn1` | 1.617 | -30.98 |
| `Cc1nc(N2CCOCC2)nc(C)c1NC(=O)c1ccco1` | 11.51 | 7.308 |
| `CC(CCNC(=O)NCCc1ccncc1)c1ccccc1` (stereo not given) | -1.742 | 6.727 |

Data taken from ChEMBL document CHEMBL3988442, “University of Dundee, Small-Polar-MMV Screening Library” (2021).